From PubChem BioAssay AID1347426 (Functional Genomics Laboratory (NCATS/FGL), 2020) come the findings set out here.

In all, about 31,000 sequences went through this assay and about 1,400 (4.5%) were called active.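 How the source made its calls: active means median seed-adjusted z-score above 1 or below -1; inactive means the rest.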 The list shows a part of the results.

The nature of this experiment: Novel Modifiers of Survival Motor Neuron (SMN) Protein: Gene Identification via Genome-wide siRNA Screen.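 Further: luminescence tracks full-length SMN protein made from the SMN2 reporter.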 Conditions: HEK293T SMN2-luciferase reporter, siRNA knockdown, 72 h; actives lie on both sides. A digest of the protocol:
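HEK293T cells stably carrying an SMN2 promoter/splicing cassette–luciferase reporter were reverse-transfected with 1 pmol siRNA per well (druggable-genome library, 3 siRNAs per gene) and grown 72 h at 37 °C. Luminescence, normalized to negative-control siRNA and log10-transformed, was scored as MAD.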
In general terms: A reporter such as luciferase makes a cellular process visible.
Take GGAAAAUCCCAAAAUGGAATT against PDIK1L: the median seed-adjusted z-score is inactive: 0.0682.
UGCUGAGGGUGUUCCCAGATT against GABRR2: the median seed-adjusted z-score is inactive: 0.
The figure for GGCAAUUCGUUGAUGUAUATT against UCHL3 is inactive: 0.378; for CCAGCAAUUUCACAAGGAATT against NONO it is inactive: 0.555.
Turning to CCUCGUCGAUCGUGCAUCUTT against ADRA2C, the median seed-adjusted z-score was inactive: 0.
For CUGCGAAUCCAAUUAUUUATT against HCRTR2, the median seed-adjusted z-score was inactive: -0.236.
For the sequence GAGUGAGGACGGAAGAUCATT against APH1A, the median seed-adjusted z-score was inactive: 0.741.
With CCCUCAAACUCGCAACAAATT against ABL2, the median seed-adjusted z-score was inactive: 0.293.
In the case of GCAUGCUGCUGGCAGAUCATT against GSTP1, the median seed-adjusted z-score was inactive: -0.61.
Take CCACUUCCAUCUCAAGCGATT against GABRA3: the median seed-adjusted z-score was inactive: -0.281.
For the sequence GCUAUUAGAGCAUUCUAAATT against BAG2, the median seed-adjusted z-score was inactive: -0.87.
In the case of GUAACGAAUUUACAACUGUTT against CXADR, the median seed-adjusted z-score is inactive: 0.872.
On to CAAACCCGUUAAUCACUAUTT against TEK, for which the median seed-adjusted z-score was inactive: -0.347.
With CAUAGUAGAUCAAAUCUUATT against ZNF284, the median seed-adjusted z-score was inactive: 0.21.
In the case of GUCUCGCUGUGAUAGAUCATT against ELN, the median seed-adjusted z-score is inactive: -0.149.
As for CUAUGAUUACGGACAUGGATT against KHDRBS3, the median seed-adjusted z-score was inactive: 0.0681.
For the sequence AGAUCCGAGUGAAUGCAGUTT against DCXR, the median seed-adjusted z-score is inactive: -0.394.
In the case of CGUUUUUGACAACUACUCUTT against RAC3, the median seed-adjusted z-score was inactive: 0.477.
Turning to GUCGAUGACUUGAAGAACATT against P11, the median seed-adjusted z-score was inactive: 0.14.
As to GCACGGGCCUUGUUAUCAATT against PLD5, the median seed-adjusted z-score was inactive: -0.0377.
Take CAAUUUCGCUCCAAAUAUUTT against SLC39A8: the median seed-adjusted z-score was inactive: 0.265.
As to GAGACUUGGGAGAACCUAATT against LRTM1, the median seed-adjusted z-score was inactive: 0.492.
With GCUUUAGUCUUGAUCAUGATT against NOX3, the median seed-adjusted z-score is inactive: 0.04.
The figure for GGAAAGGACUAAAAUACAATT against APOBEC3F is inactive: -0.315; for GUCGCAUAGUAGAUAUACATT against SOS1 it is inactive: 0.
Take GGUCGAUAAUCCUAACUAUTT against CLGN: the median seed-adjusted z-score was inactive: 0.18.
The figure for AACUACUCCCUGCUACUCATT against HES2 is inactive: -0.186; for AUGUCCGACUUAUUCGAGATT against MAP1LC3B it is inactive: -0.0749.
For CCAUCACGGCAGUUUGCAATT against RORB, the median seed-adjusted z-score was inactive: 0.044.
Regarding GACAUUGUUUCAUCCUCCATT against MECP2, the median seed-adjusted z-score is inactive: -0.332.
For the sequence GGAUGGUUGUGAGCCGCUATT against ZNF784, the median seed-adjusted z-score is inactive: 0.291.
The figure for GAAAGUUGUUUGUCAUGUUTT against ARR3 is inactive: -0.0936; for GGAGCAUUGGUUUUCGGGATT against HEYL it is inactive: 0.48; for GCAAAUCUUCCUUCAACAATT against PTF1A it is inactive: 0.482.
As to GCCCAUGUCCCAAAUCACATT against PDE4A, the median seed-adjusted z-score was inactive: -0.147.
For GGACCUGAGAGUAAGCACATT against ZDHHC8, the median seed-adjusted z-score is inactive: 0.
CAGAGAACAUUAUCAAGGATT against SYP: the median seed-adjusted z-score is inactive: -0.0289.
For the sequence CACUCGCAUUUGGAGUAAATT against NPY2R, the median seed-adjusted z-score is inactive: 0.121.
The figure for CGUAUGAUCUUUCUGGGAATT against AGMAT is inactive: -0.0269; for GGAAUUAAACUAGAUCGAUTT against DGKE it is inactive: -0.0589.
As to GCAAAAUGAUCGCACAGAUTT against TRIML1, the median seed-adjusted z-score is inactive: 0.
Regarding GAAUCACUCUGGAGAGCUATT against ILK, the median seed-adjusted z-score is inactive: -0.231.
To CUAUUGGUUUCAUAACAUUTT against LIPJ belongs inactive: 0.295; to GGAAGGGCUAUGUUACUAATT against ZNF155, inactive: 0.698.
For the sequence UCUACGCAGUGGUCACCAATT against BLK, the median seed-adjusted z-score was inactive: -0.274.
In the case of GGUGUCCUUCUAUUCCAAUTT against CHRNB2, the median seed-adjusted z-score was inactive: -0.649.
In the case of GUCUUGGAACUGUCUUAUUTT against TUBA1C, the median seed-adjusted z-score is inactive: 0.157.
For GAAACGACAGUCAAAUUCATT against CD34, the median seed-adjusted z-score is inactive: -0.0898.
Regarding CAGGGUUCCUGACAGAAUATT against MAPK1, the median seed-adjusted z-score was inactive: 0.
Turning to GAGGCCACCUAUUGUUUCATT against MYL6B, the median seed-adjusted z-score was inactive: 0.11.
GCUGAUAUCGUCUUUGUUUTT against DNAJB1: the median seed-adjusted z-score is inactive: 0.466.
Turning to GGGAAGUUCUUUACUCAGATT against ZNF501, the median seed-adjusted z-score is inactive: 0.19.
In the case of AGUGUAACCAUCAGUUAAATT against CHCHD2, the median seed-adjusted z-score is inactive: 0.0884.
As for CGUCUUUACAAAUACGGCATT against PARD6B, the median seed-adjusted z-score is inactive: 0.315.
As for GGAGGAUCUGAAUGCCUCATT against LDHD, the median seed-adjusted z-score is inactive: 0.
With GAGAUUUGGUAAAUCGUUUTT against SPZ1, the median seed-adjusted z-score was inactive: 0.535.
Consider GGCUGUGAUUCACGACAAATT against KIF26B, for which the median seed-adjusted z-score is inactive: -0.153.
Turning to GUCAAGAAGUAUUUUGUCATT against FBXO6, the median seed-adjusted z-score was inactive: 0.0361.
For UAAAGUUCUUUUAUCCAUUTT against UBE2D3, the median seed-adjusted z-score is active: 1.62.
To GGAUAUACAGAAUGACAUUTT against ACBD5 belongs inactive: -0.118; to CUCUGAAGGAUGCACCCAATT against CTBP1, inactive: 0.105.
To GGCUUUCCACGAGCACUUCTT against RGS3 belongs inactive: 0.065; to GGAAUGACAUUGAUGAACATT against AMT, inactive: -0.506; to CCAUGUCUACCAAAGUUUATT against PLSCR1, inactive: 0.661.
Consider CCCUCAGUCAAAUUGCCUATT against CHMP4A, for which the median seed-adjusted z-score was inactive: -0.209.
On to AAAAAUCGCUGGACAUGUATT against DNASE2B, for which the median seed-adjusted z-score is inactive: 0.86.
As to CACCAUUGAAGUUCCCUUUTT against STARD3, the median seed-adjusted z-score is inactive: -0.314.
The figure for GGAUUCACCUACGCUCUUATT against CHD1L is inactive: 0.63; for GUUCAUGCAUGGGUGGAAATT against CD200R2 it is inactive: -0.772; for GGAACUACUGGUGAACUAUTT against MCAM it is inactive: -0.0884.
As for GCAGUGGCAAAAAUGGAAATT against CYP2W1, the median seed-adjusted z-score is inactive: -0.0986.
Take CUUUCAACCUAUCCUCAAATT against ZNF107: the median seed-adjusted z-score is inactive: 0.0761.
The figure for UCACAGCACUUGUGAGGAATT against SMPD1 is inactive: 0.353; for GGAUCUGGGACUAAGGGUATT against PCDHB3 it is inactive: 0.304; for CCAUAUGAGUGUUCCGAAUTT against ZFP1 it is inactive: 0.0391.
On to CACUAUUUCCUGAUACAGATT against POLR3G, for which the median seed-adjusted z-score is inactive: -0.485.
Take GGAAAUCUCUUAGUAAUGATT against TAAR8: the median seed-adjusted z-score was inactive: 0.0792.
The figure for GGACAUGCAAUGAAUUCAATT against CTSZ is inactive: -0.393; for CCCAUGUUUCUAAUAAAUATT against ZNF415 it is inactive: 0.222; for GAUUAGAUCUAAACAAUCUTT against TTRAP it is inactive: -0.33.
Turning to GCAUCUAGGUACCAAUGGATT against OTUD7B, the median seed-adjusted z-score was inactive: 0.226.
As for GCAGAUGAGUCAUCUGUCATT against RBMS1, the median seed-adjusted z-score is inactive: 0.798.
GAUCCUAUCUUACUAACCATT against IL7R: the median seed-adjusted z-score is inactive: 0.
Take GCUGAGAUGCGUAAGCAAATT against USP48: the median seed-adjusted z-score was inactive: 0.397.
With CCCGGUCACUUCUGAGAAATT against ZNF696, the median seed-adjusted z-score is inactive: 0.17.
For the sequence CACUGCAAAUUAUUCCAUATT against RNF114, the median seed-adjusted z-score is inactive: 0.452.
As for GCGCCGUGGUCAACAUCUUTT against SLC32A1, the median seed-adjusted z-score is inactive: -0.251.
On to CCUUAUCGCUCAACAUGAATT against STK38, for which the median seed-adjusted z-score was inactive: -0.961.
Consider AGUUUUCCUUCCACACUAATT against RBP3, for which the median seed-adjusted z-score is inactive: 0.
For UGACAGUAGUUUAUCAAAATT against AREG, the median seed-adjusted z-score is inactive: 0.104.
For CGGCAUCCUAUGUUAGAAATT against PRKAR1A, the median seed-adjusted z-score was inactive: 0.428.
Turning to CAUUCACCACAAUAGCUAUTT against GPR1, the median seed-adjusted z-score is inactive: 0.0609.
The figure for ACACGUUCAGUGUCCCGAATT against IL28RA is inactive: 0; for AGUUACUACCUUAUCCUCATT against POU2F2 it is inactive: 0.163; for CCUUAGGGAUUGUCAUCAATT against KREMEN1 it is inactive: 0.
CGCUCACACUGGGUUCCAATT against SLC34A1: the median seed-adjusted z-score was inactive: 0.139.
GAAGAAUACCGGAAUAGCATT against CNDP1: the median seed-adjusted z-score is inactive: 0.203.
To GGACCUCCCUAGAAAGAAATT against TRERF1 belongs inactive: -0.0952; to GGAUGUUAGUAAACUCUCUTT against PSMA4, inactive: 0; to GGAAAAUCGCAAUACUAUATT against CALR3, inactive: -0.0828.
In the case of CUAGUUACCUGGACAAAGATT against THRA, the median seed-adjusted z-score was inactive: 0.13.
For CAAUCUCAAUCGUUGCUGATT against ATP5J2, the median seed-adjusted z-score is inactive: 0.00511.
On to GAACUUGUCUUGCGCAAAATT against ZEB1, for which the median seed-adjusted z-score was inactive: -0.163.
The figure for CCAUGAUCCUCUAACAUCATT against PAN3 is inactive: 0.349; for GUGCUAACUCAAUUCCAUATT against SSBP3 it is inactive: 0.00592.
AAUUAUCACGACACUCUUATT against DNASE2B: the median seed-adjusted z-score is inactive: 0.86.
In the case of CACUAGCCUUGUUACCGUUTT against ERMP1, the median seed-adjusted z-score was inactive: 0.231.
The figure for GAUGGGACAUCGUUGCUCATT against OASL is active: 1.02.
